No constants are given. Whether binding was seen depends on the method and setting. In cells and extracts the contact can be indirect. Here binding means that the protein was enriched with, or labelled near, the bait; the list need not be complete.
T1: Cdc3-mCherry (C. neoformans) (UniProt J9VUF2)
T1 sequence: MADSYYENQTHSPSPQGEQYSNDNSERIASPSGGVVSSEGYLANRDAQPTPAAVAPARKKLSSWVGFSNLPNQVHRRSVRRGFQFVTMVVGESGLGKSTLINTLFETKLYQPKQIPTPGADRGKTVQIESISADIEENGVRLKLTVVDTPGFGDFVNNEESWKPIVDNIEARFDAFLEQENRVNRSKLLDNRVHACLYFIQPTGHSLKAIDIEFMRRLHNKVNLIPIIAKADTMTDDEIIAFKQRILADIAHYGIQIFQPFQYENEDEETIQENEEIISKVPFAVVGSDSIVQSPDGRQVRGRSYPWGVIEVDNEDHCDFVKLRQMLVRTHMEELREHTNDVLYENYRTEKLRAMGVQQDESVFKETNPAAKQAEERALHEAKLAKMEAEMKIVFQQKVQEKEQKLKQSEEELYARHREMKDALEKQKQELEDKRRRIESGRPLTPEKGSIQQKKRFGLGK

T2: Cdc10-mCherry (C. neoformans) (UniProt J9VMT9)
T2 sequence: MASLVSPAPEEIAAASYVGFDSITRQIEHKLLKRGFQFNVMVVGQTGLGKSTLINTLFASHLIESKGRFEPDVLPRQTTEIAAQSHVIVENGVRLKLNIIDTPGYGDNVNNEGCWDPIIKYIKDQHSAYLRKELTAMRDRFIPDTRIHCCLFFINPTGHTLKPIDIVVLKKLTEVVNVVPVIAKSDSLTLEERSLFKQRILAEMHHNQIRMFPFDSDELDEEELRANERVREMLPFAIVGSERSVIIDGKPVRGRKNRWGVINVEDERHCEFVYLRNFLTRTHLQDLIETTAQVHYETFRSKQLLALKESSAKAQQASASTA

B1: E3 ubiquitin-protein ligase PEP5 (protein, UniProt J9W0X0 1-1071)
chain: MALSPSHAGQPAPQWRQFTFFDVENVKDEQDLAQSPRAIRQLTPPVAVTTTAPKSPLSPSLIVSSSRNISILDKHFSVERSFTAWEQNGRATFLLEAGGLLVAIGEEEGSLWPLLKVWDLTKEDKKSSERRPVLLRSVRIQHGQRPHPVSSVALTSNLSHLAIGLGDGTVLLYRHFLQSLTTSSYLTSLPKARVVHESHEPVTGLGFREHPPTDKSTPSRSSSSHGFSLFIVTTNRVLSAPVNGKGEARTIDDVGCALGCATMDSQRKEMVVARDEAIYLYGPDGRGACLAYEGPKSSITVYSHNLIITSPPFYPSVASASATVRHYAKSTPNGELGSPDTAKITIFDLDNKVIGYSGTYNEGVRDVFCQWGGIYVYGGNGKLCRLDEQSTQAKLETLYRRNLYTLAITMARSQGLGEAGIADIHRRYGDYLYSKGDFDGAMGQFVKTLGSLQPSYVIRKFLDAQRIHNLTTYLQELHSRGLANPDHTTLLLNCYTKTSDRARLDQFIRTEARRSSSPAPGTGAVGREGELPFDLDTAIRVCRQAGFYEHAAYLAKKFDKHEDYLRIQIEDAGKVDEALRYLRGLGPKACEVNMARYGRTLLQHEPEATTELLIDLCSGNLGRKKAVREVDGKTDGITSGSGVNGSGPAMLSYLGYNKVTGFLSGDTPSGATVSEDEKPTGAHDGLDAAKVGEDEKEDVTPSYIPASPRQYFAHFVDHRELFIHFLESVALNLWNQKIDPSFSNSSAVSAPKRDMDSPPPTDPTIIDQTAVWNTLIELYLSSSAEESKRKALALINSDSTPYDPMHALVLCSSVGFTEGMLRLWEGMGMYEDVLRYYMEEGQEAEDAQGITPSNKVFTHLEMYGPSHPHLYPLVLRYLTSSPAILTRHKGELSKILAKIDEYQIMPPLGVVQLLSRNGVVDVGSVKEWLRGKVEENEEEIESDKHLYDSYRSETAAKRKAILDRSNVSQPEIFQVTKCAACGGQLDLPSVHFMCKHSYHQRCLPDSDPECPICARQHSVIRELRRNQLRLADRHDLFLEEVHQAEDGFNVVADAFGRGLFRREEVDERIEA
B2: Malate synthase (protein, UniProt J9W232 1-538)
chain: MSLPQGIYLTAPIPKGGEHILSTEALEFLAVLHRTFNKRRLELLKNREKVQAELDQGKPLSFLPETREIRENLAWSCAPPGPGLEDRRVEITGPTDRKMVVNALNSGAKTFMADFEDSNSPTWSNMVLGQVNLYDAIRRQIDFEINGKAYKLSEKPAVLLVRPRGWHLPEPRLIIDGTPMSGSLFDFGLYFFHNARELISRGSGPYFYLPKMEHHLEARLWNDAFCLATSHLGVQQGVIRATVLIETLPAAFQMEEILYELKEHSAGLNCGRWDYIFSFIKKQRAHKNCVFPDRSDVTMTVPFMDAYVRLLIQTCHKRKVAAMGGMSAQIPIKNDPAANERAMSKVRADKLREVTAGHDGTWVAHPALISIALEIFNQHMPGPNQYHIRREDVTVTDKQIADPSVPGKITEQGLRDNVSAALSYCAAWISGNGCVPINHLMEDAATAEIARVQLWQWCKYGSKTDSGKDINPSYVQTILSEEASKVSKLPGIDPSHVKIASEYMAQQVKAEWPSDFLTSDLLGHLEGVGTKGGAKASL
B3: DASH complex subunit Duo1 (protein, UniProt J9VJS2 1-431)
chain: MDSPLLPTLSRSNYSVDEGNNGDASLSLADLSIASDGPDGLSPLPPPRQLSQHGQSQIKSLYAQGSGYIGASGGAGTESSVMLGSTSTRENIPPTAISNDLKGGAGTSAAGKPRFSLFAPSRQAYEDDDRQSVMEEEDDKRTSAIEDRDDVTISNEGYGREEGGDTEGEEEDEERVRPQEHSRQRDSDGETKLRESLYELRKFNEVFEGFIGSLEGVKGHNERLAERVQQTSLLLDEYTAILGQAEHTQRLLLNPRWTGSSDDAAAITAEEQARAAAAAKALEEAQAAAEAARAAEEQARKSAERERAQGEVRTRGAGTRGRGTIRGSGLSRGSRLARGGSGSVRGGSGLARGGGLARGGSELVRGGSELVRGGSGLIRGRGAGTVVTKSSVAPPRPESATTSSATRRGGSTGTAGRYSHVKSSGYGPRQT
B4: Symplekin (protein, UniProt J9VRR8 1-1054)
chain: MSLYADDDPTKALQLTDEQPTLQPPTDPQQALNAALALDSESPEQQEGLQNAALRFEEHPERLPEVIPRLLGLITEGGDSLLRFWTLDMIALTVGRSGLMLDVKLHVAQYCLTALNKLLHSNSVPTIKAVIPILSTIYPILFRLLATSRPSQQVLDLFNVVKSKIISFALDPNARPFNVGIKAVAWKFVQRVLLAATKAAGSDPRLPQRGAGSNDVNVSHIVPNGCLSASDIEKEGTVLQTQLVTHLYSSSDPAILHPLINTLPAIAKMRPTLAPLVVHSLASWTPSALVAAGRSAMEIRAVDKTVRIAISHLLRHPPLSAHAAQLNDALVRQKARMEAAFLGEASARKERRQNLKHTIDPEAAFEAESSEQAAKRARLDGLVGVGSGMGKGPEIDVSGMRLEEVVEVVLSSLRGVSLELLTGTIESAKRALQENSTDAQPLLAAALGISSVVKEEEEEEILNPLDMEDDDDDLLMDGPEPLMEEEEPTSFTDFVLPAPEPLESSDKEFIFSDTIERIWQTGADLAGLPDPKDSDATKLAVKPKEMWMLLLARLATRGADVKRKVICDFVIADFANRSKFASVWLNEEWYNEKIGISSPGQYLSNLEAIVTAYLPKVDSKDKSLSTFILTLPAIPPSLISTLETICQEPERALVGFLALRDIVEVRPPVRPQALQTLLELCTHPDRKIRVMAIITTVRRWGNDSPMMPFLTRYALGVLWRLANNDVKNEDVDMEEGEQADEKIQSKFLGEPSADNVQQHVELAFALAKRKQDLLDDIFRLYPRLEPAVQDVVEAQLMPLIQSLGATEKLLEILRKFPNGADKLVMRVVGVLSAEGSKTLVTLMKTLLSERDLDPRFVIPIVGDLDKTEIEKQLPRIVSLLGDVDSKDMVKTAFASMLQKMTPSDLMVALHQEGAPLKLTIEAIGICFSMTTVFRSDVLANAMSRIADLPTIPLIFVRTIIQVVTTYKSLAPFIANHILPKLVTKKIWEIPQLWDGFIMLAKRIAPASFGALLQLPKEQLKEVVEKQPGLKSGLKGFLANKPGSKAAMAEIFGDD
B5: Glutathione S-transferase (protein, UniProt J9W1V7 1-330)
chain: MPTSANRIHNNADEKGNFNRQVSSFRDAIQPGGQFPPEKGRYHLYVAFGCPWAHRSLIVRRLKGLEDFIDISIVHPHLHEGGWHFVTPEAAAHPAPVSEHPDTSFPGATQDHLFGFSHLSKIYYKANPDYNARFTVPVVWDKITGTIVNNESSEVIRFFNSAFNELLPEGKGKDLDLYPEELRGEIDELNEWVYHDINNGVYKTGFATTQEAYEKAVIPLGKALERINERLSDGREFLVGGRLTEADVRLYTTIVRYDPVYHSHFKCNTGLIRHDYPHINRWLKNLYWNYPAFKDTTNFDHIKDGYWYSQINLNPTRIVPIGPKHNVEPL
B6: V-type proton ATPase subunit F (protein, UniProt J9VRI8 1-121)
chain: MASNTPNPKDRNLIAVIGDEDSVTGLLLAGIGHINQHQKKNFLIVDGKTQTSVIESAFQDFTERKDVAILLINQHIAERIRPTVDRYQAAFPALLEIPSKEHPYDPAKDSVLKRVQKLRGD
B7: Pre-mRNA cleavage complex 2 protein Pcf11 (protein, UniProt J9VKW5 1-611)
chain: MAYPAYPAYQQAPYYPPPPVQPTTDVFRRQYADRLRALTFNSRPIIQDLSMLAMAARDRNDWNGMQAVVEEIELAVLRALPQQKLPLLYLLDSISKNVGPPYTTRLLQAIVPRLYIKTYREVDGVTKTKMEEMIGLWRTGGPGGSELYGSHVREQVERELFGSAGIQNFKAPNRQQVQVLLNAALDNKRREVAMRPGDVVLGRQLNALLGIGELLSTTNVQPQELSMIVEQLKSMAPPSVAPTPTQASVTPSWGPTPSVNDSTPSNLPPFPPKLPAVNGNGYTNAALPPFPSNIPTPLETISTAPMTSSQTPISGNQRSSTPAMAPASLAPVPSIVPSVPSLPVDVARILQTLNKSGIGSQPQTPDVERGTPGPNMVATTEAYEDMILRLDIKLQSIDLNAHHKLSFAHLSHRCQQCGMRFPSANAAFDAHMDWHFRRNKKERESGGRGAHRRWLPRVEQWVSDAITLPSTAASSSQTEKATVSAERLAQLRQKWVKVPQDSKKAASVCPVCKEAFRAEWSDSEEEWIWKNALAINGVFYHATCRAEQTSALKRLKAADPNRRTSSSASPRTTPSNEGLKPEAQKRKVEGMDVEHEEGSKRVKVEDIVDDI
B8: Profilin (protein, UniProt J9VJD3 1-127)
chain: MSWQAYVDDHLVATGKVKKAAILGKQGGVWAASPGYNLSQQEQNAITQTYFQQPDSVRANGITLNGFKFMCIQATPEEVIGRKGERGVFVIPTNQAILVAEYDAPTSAGEANVVVAKLADWLKSASY

biological target: T1, Cdc3-mCherry (C. neoformans); assay: affinity purification with mass spectrometry; mCherry-tagged septin captured from C. neoformans lysate on RFP-Trap agarose, 4 h at 4°C, washed with TBS with 2 M urea pH 7.5; GeLC-MS/MS; untagged H99 as negative control; hits logFC >2 and adjusted p <0.001 (text-named hits <0.05); exponential cultures at ~25°C or shifted to 37°C for 2 h; N = 5

binding, binds:
B1
B2
B3
B4
B5
B6
B7
B8

biological target: T2, Cdc10-mCherry (C. neoformans); assay: as above

binding, binds:
B1
B2
B3
B4
B5
B6
B7
B8

Source: publication PMC11651612
